# Results reported in the supplement of paper PMC10849652.
# Sequences of proteins named here, by UniProt entry; tags and fusion partners are left off. A change or cut given only in a name is not applied to a line headed by its entry.
# UniProt Q96FQ7: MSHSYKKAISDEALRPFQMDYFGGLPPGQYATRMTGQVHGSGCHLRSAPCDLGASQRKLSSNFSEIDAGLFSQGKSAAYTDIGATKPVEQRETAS
# UniProt Q99732: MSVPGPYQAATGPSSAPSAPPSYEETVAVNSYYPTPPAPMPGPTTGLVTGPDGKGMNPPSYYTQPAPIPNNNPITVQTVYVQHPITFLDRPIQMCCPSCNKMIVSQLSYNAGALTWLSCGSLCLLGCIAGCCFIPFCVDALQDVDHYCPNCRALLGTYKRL
# UniProt Q96JN0: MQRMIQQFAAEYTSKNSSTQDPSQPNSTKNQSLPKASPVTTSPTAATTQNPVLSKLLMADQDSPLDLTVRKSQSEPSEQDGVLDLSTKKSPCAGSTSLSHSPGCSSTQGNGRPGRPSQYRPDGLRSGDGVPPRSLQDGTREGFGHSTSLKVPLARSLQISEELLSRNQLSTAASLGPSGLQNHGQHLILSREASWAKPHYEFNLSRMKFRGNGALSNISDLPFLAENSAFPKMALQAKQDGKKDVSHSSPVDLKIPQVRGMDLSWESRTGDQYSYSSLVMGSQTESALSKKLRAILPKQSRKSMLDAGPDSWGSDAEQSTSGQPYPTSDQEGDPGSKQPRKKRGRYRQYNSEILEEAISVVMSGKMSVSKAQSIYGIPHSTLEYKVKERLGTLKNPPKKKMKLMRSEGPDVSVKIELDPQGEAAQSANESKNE
# UniProt Q7Z4F1: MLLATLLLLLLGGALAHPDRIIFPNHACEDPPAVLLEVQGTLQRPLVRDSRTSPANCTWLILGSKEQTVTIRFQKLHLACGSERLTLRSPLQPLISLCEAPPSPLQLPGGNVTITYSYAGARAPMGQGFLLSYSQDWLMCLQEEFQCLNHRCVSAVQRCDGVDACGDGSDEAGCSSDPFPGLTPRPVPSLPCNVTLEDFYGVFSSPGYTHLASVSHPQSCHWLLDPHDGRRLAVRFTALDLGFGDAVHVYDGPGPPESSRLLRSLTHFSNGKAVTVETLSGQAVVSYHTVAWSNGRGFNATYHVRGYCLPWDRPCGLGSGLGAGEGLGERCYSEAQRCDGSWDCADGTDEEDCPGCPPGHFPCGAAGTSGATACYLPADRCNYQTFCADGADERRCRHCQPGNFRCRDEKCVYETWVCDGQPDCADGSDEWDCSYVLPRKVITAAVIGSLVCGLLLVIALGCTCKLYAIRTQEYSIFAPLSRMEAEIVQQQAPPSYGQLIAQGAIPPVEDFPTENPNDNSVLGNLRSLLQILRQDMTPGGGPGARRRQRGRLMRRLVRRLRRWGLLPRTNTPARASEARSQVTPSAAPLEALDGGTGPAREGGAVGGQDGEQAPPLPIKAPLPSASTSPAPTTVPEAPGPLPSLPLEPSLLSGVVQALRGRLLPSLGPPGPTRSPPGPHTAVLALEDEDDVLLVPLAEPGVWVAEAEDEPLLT
# UniProt Q969L4: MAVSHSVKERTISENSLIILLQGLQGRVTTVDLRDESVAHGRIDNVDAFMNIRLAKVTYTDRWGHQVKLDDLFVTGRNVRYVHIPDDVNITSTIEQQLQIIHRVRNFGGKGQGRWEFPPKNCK
# UniProt Q9UJU2, whole entry, looked up: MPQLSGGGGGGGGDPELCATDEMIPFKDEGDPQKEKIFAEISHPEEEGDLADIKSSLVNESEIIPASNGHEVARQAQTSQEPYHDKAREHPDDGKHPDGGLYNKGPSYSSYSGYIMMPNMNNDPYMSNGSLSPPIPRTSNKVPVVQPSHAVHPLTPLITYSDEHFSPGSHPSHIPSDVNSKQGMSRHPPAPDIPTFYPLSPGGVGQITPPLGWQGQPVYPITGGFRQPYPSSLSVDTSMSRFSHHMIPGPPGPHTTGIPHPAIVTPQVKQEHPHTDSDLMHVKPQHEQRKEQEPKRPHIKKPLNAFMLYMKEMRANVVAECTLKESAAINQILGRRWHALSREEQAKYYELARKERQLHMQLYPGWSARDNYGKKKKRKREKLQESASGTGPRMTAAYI
# UniProt Q07954: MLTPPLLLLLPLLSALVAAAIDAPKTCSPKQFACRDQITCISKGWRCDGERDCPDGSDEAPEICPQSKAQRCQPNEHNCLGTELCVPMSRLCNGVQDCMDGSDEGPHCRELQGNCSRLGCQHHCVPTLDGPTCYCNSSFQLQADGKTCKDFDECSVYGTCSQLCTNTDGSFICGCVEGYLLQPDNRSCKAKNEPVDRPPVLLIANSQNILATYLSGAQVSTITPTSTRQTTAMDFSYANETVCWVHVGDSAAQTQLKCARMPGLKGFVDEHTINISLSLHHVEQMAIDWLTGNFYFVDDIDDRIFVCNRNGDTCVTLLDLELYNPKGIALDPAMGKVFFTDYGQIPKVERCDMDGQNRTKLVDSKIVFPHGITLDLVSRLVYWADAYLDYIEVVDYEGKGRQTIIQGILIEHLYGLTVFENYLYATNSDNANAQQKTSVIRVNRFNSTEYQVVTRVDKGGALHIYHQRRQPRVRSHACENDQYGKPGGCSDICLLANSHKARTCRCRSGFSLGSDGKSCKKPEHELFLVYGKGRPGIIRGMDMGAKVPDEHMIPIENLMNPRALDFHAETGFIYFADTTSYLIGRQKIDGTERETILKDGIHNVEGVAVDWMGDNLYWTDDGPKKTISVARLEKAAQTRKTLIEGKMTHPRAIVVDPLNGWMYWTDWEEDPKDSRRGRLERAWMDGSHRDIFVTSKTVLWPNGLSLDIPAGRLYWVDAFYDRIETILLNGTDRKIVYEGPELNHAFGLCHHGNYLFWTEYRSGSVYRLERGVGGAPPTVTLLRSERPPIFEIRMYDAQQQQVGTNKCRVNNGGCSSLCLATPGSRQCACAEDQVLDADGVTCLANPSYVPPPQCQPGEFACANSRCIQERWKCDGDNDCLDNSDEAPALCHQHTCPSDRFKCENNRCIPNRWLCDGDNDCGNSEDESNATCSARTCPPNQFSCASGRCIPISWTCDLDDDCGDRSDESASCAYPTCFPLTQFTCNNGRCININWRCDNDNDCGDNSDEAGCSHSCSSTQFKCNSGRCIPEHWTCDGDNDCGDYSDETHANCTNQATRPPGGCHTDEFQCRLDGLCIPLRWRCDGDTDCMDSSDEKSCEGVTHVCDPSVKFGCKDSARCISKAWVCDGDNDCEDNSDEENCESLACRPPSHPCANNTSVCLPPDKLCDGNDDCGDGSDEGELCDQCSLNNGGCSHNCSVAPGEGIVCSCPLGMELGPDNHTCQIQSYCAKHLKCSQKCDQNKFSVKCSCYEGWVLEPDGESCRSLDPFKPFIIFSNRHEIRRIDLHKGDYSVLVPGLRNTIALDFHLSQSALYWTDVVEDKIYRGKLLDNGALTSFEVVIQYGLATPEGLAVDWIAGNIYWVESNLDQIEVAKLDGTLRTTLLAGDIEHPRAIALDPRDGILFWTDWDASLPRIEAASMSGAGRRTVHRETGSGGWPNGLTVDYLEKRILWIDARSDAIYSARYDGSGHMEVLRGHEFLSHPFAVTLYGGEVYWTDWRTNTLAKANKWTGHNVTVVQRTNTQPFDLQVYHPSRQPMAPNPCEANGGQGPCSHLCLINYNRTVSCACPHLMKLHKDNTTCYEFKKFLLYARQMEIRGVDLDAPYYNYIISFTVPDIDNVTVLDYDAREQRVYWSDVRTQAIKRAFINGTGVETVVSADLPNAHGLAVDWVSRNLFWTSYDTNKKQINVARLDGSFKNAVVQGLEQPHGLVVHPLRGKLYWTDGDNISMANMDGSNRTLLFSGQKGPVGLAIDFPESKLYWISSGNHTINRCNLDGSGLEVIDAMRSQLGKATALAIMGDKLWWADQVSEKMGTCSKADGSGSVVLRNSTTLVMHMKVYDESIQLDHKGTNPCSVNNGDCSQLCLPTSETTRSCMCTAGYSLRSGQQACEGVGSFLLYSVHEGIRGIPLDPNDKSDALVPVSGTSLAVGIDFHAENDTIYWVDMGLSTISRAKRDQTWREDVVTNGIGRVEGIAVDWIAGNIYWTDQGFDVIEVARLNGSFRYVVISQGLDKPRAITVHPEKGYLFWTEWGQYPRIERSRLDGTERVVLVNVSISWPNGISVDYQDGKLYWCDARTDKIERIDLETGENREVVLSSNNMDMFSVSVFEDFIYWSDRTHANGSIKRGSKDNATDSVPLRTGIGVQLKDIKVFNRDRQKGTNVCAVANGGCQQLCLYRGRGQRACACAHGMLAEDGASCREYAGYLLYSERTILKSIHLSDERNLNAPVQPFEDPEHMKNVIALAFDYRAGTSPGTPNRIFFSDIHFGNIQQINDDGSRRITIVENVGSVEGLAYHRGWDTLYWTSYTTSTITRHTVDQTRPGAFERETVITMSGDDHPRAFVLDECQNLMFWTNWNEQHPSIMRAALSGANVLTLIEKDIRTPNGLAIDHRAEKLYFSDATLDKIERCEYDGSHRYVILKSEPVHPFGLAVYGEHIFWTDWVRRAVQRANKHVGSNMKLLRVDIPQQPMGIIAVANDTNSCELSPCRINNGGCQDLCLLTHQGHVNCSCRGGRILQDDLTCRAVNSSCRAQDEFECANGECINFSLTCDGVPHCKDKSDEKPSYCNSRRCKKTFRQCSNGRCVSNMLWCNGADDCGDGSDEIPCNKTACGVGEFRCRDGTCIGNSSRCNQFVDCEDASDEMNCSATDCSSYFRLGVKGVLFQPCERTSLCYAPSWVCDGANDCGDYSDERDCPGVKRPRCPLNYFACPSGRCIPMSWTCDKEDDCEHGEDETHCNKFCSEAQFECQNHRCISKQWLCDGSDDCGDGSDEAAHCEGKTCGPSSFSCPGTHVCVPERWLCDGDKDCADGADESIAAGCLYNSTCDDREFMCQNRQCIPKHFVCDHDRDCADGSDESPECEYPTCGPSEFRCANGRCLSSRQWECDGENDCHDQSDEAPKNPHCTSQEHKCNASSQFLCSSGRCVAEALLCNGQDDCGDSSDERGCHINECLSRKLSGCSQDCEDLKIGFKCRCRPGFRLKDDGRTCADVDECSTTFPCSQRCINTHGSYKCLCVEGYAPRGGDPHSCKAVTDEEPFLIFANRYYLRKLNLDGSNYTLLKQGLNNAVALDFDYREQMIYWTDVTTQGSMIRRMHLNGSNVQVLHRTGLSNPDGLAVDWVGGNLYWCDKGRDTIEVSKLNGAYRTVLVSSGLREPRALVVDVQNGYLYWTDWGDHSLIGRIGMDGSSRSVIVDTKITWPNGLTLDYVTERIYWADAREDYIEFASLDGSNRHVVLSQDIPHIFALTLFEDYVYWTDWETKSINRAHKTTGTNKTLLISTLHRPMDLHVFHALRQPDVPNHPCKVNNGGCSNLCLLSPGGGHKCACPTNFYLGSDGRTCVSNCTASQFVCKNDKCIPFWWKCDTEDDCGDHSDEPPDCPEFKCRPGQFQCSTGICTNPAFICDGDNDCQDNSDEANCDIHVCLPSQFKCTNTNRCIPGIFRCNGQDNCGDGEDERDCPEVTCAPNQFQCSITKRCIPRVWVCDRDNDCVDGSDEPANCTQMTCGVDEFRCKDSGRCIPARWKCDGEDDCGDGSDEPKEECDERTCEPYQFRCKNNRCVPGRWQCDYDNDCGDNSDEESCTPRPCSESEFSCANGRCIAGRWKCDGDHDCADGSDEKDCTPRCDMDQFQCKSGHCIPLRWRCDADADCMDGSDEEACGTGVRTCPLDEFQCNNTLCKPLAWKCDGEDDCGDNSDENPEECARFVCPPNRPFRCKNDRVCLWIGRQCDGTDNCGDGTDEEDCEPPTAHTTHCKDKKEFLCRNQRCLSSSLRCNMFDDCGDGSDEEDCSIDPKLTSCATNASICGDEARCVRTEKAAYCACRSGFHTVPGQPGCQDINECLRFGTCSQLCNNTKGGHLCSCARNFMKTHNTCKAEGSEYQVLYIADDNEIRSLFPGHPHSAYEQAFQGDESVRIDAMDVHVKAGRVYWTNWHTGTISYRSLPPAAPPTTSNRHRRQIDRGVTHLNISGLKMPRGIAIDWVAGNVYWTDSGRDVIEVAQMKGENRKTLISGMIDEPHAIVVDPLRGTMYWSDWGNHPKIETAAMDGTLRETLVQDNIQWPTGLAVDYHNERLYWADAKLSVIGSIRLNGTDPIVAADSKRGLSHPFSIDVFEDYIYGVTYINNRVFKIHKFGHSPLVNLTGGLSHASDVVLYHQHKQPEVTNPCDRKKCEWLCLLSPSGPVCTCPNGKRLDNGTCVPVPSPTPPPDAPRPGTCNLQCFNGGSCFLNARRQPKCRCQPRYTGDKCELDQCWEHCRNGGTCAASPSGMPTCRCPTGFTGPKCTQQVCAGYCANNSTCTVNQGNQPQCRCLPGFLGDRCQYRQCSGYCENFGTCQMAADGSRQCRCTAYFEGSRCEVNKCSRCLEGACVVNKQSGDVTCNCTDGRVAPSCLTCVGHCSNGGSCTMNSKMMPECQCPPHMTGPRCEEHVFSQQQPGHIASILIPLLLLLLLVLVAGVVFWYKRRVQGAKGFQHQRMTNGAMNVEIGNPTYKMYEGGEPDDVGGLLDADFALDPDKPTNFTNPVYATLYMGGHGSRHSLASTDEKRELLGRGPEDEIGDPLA
# UniProt O15243: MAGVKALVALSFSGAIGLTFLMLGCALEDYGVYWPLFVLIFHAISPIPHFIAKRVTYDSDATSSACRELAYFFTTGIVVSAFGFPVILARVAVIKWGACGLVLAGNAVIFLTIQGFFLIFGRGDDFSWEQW
# The other results are listed elsewhere or left out.
# Legend:
# Test in all cases: log2 fold change, soluble protein after heating vs DMSO (PISA); higher = thermal stabilisation; K562 lysate, 10 uM; active = over 0.2 and 3.5 SD of the protein, either way, in both replicates (recomputed)
# dasatinib = compound: Cc1nc(Nc2ncc(C(=O)Nc3c(C)cccc3Cl)s2)cc(N2CCN(CCO)CC2)n1 [dasatinib]
# Summary of the method: (§1)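 Following dounce homogenisation of K562 pellets in PBS pH 7.4 with 1 mM MgCl2, crude extract at 1 mg/mL protein was incubated for 30 min with 10 μM compound. Aliquots were then heated for 3 min over 48°C-58°C and pooled, NP-40 was added to 0.5% at 4°C, and soluble protein was recovered as the supernatant at 21,000xg for 90 min. Channel-sum-equalised TMTpro 16plex LC-MS/MS quantified this protein. Each value, from duplicates, is a log-two fold change in thermal stability relative to solvent controls.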
# [1] = compound: Cn1cc(-c2ccc3c(c2)CCN3C(=O)Cc2cccc(C(F)(F)F)c2)c2c(N)ncnc21
# Summary of the method: as §1
# [2] = compound: NC1(c2ccc(-c3nc4ccn5c(=O)[nH]nc5c4cc3-c3ccccc3)cc2)CCC1
# Summary of the method: as §1
# vorinostat = compound: O=C(CCCCCCC(=O)Nc1ccccc1)NO [vorinostat]
# Summary of the method: as §1
# silmitasertib = compound: O=C(O)c1ccc2c(c1)nc(Nc1cccc(Cl)c1)c1ccncc12 [silmitasertib]
# Summary of the method: as §1
# entospletinib = compound: c1cn2cc(-c3ccc4cn[nH]c4c3)nc(Nc3ccc(N4CCOCC4)cc3)c2n1 [entospletinib]
# Summary of the method: as §1
# quisinostat = compound: Cn1cc(CNCC2CCN(c3ncc(C(=O)NO)cn3)CC2)c2ccccc21 [quisinostat]
# Summary of the method: as §1
# [3] = compound: NC(=O)Nc1cc(-c2cccc(F)c2)sc1C(=O)N[C@H]1CCCNC1
# Summary of the method: as §1
# [4] = compound: NCC(=O)Nc1ccc(-n2nc(C(F)(F)F)cc2-c2ccc3c(ccc4ccccc43)c2)cc1
# Summary of the method: as §1
# [5] = compound: O=C1NC(=O)C(c2cnc3ccccn23)=C1c1cn2c3c(cc(F)cc13)CN(C(=O)N1CCCCC1)CC2
# Summary of the method: as §1
# [6] = compound: NC(=O)c1cnc(N[C@@H]2CCCC[C@@H]2N)nc1Nc1cccc(-n2nccn2)c1
# Summary of the method: as §1
target,measurement,setting,value
LRP5 (UniProt O75197),log2 fold change,dasatinib,inactive: 0.098
same,log2 fold change,[1],inactive: -0.117
same,log2 fold change,[2],inactive: -0.067
same,log2 fold change,vorinostat,inactive: 0.158
same,log2 fold change,silmitasertib,inactive: -0.107
same,log2 fold change,entospletinib,inactive: -0.074
LRRC8E (UniProt Q6NSJ5),log2 fold change,quisinostat,inactive: 0.011
same,log2 fold change,[3],inactive: 0.014
same,log2 fold change,[4],inactive: 0.03
same,log2 fold change,[5],inactive: 0.033
same,log2 fold change,entospletinib,inactive: 0.083
LINC00526 (UniProt Q96FQ7),log2 fold change,quisinostat,inactive: 0.092
same,log2 fold change,[3],inactive: -0.126
same,log2 fold change,[5],inactive: 0.084
LITAF (UniProt Q99732),log2 fold change,dasatinib,inactive: 0.099
same,log2 fold change,[1],inactive: 0.114
same,log2 fold change,quisinostat,inactive: -0.017
same,log2 fold change,[3],inactive: 0.002
same,log2 fold change,[6],inactive: 0.095
same,log2 fold change,[2],inactive: 0.116
same,log2 fold change,vorinostat,inactive: 0.078
same,log2 fold change,silmitasertib,inactive: -0.09
same,log2 fold change,[5],inactive: -0.011
same,log2 fold change,entospletinib,inactive: 0.03
LRPPRC (UniProt H7C3W8),log2 fold change,[4],inactive: 0.792
LMO4 (UniProt P61968),log2 fold change,dasatinib,inactive: 0.029
same,log2 fold change,[1],inactive: 0.149
same,log2 fold change,quisinostat,inactive: 0.075
same,log2 fold change,[3],inactive: -0.032
same,log2 fold change,[6],inactive: -0.03
same,log2 fold change,[2],inactive: 0.277
same,log2 fold change,[4],inactive: 0.305
same,log2 fold change,vorinostat,inactive: 0.049
same,log2 fold change,silmitasertib,inactive: -0.123
same,log2 fold change,[5],inactive: 0.062
LBHD1 (UniProt Q9BQE6),log2 fold change,quisinostat,inactive: 0.202
same,log2 fold change,[3],inactive: 0.086
same,log2 fold change,[5],inactive: 0.139
LCOR isoform 3 (UniProt Q96JN0),log2 fold change,[6],inactive: -0.263
LRP10 (UniProt Q7Z4F1),log2 fold change,dasatinib,inactive: 0.015
same,log2 fold change,[1],inactive: 0.072
same,log2 fold change,[2],inactive: -0.313
same,log2 fold change,vorinostat,inactive: 0.311
same,log2 fold change,silmitasertib,inactive: -0.062
same,log2 fold change,entospletinib,inactive: 0.013
LSM10 (UniProt Q969L4),log2 fold change,dasatinib,inactive: -0.115
same,log2 fold change,[1],inactive: 0.001
same,log2 fold change,[6],inactive: -0.011
same,log2 fold change,[2],inactive: 0.04
same,log2 fold change,vorinostat,inactive: 0.351
same,log2 fold change,silmitasertib,inactive: 0.053
LONP2 (UniProt Q86WA8),log2 fold change,[4],inactive: 0.049
LEF1 (UniProt Q9UJU2),log2 fold change,quisinostat,inactive: -0.12
same,log2 fold change,[3],inactive: 0.054
same,log2 fold change,[4],inactive: 0.134
same,log2 fold change,[5],inactive: -0.057
LIG1 isoform 3 (UniProt P18858),log2 fold change,entospletinib,inactive: 0.025
LEMD2 (UniProt Q8NC56),log2 fold change,dasatinib,inactive: 0.061
same,log2 fold change,[1],inactive: -0.157
same,log2 fold change,quisinostat,inactive: -0.035
same,log2 fold change,[3],inactive: 0.03
same,log2 fold change,[6],inactive: -0.012
same,log2 fold change,[2],inactive: 0.138
same,log2 fold change,vorinostat,inactive: 0.006
same,log2 fold change,silmitasertib,inactive: 0.264
same,log2 fold change,[5],inactive: -0.042
same,log2 fold change,entospletinib,inactive: 0.082
LRP1 (UniProt Q07954),log2 fold change,quisinostat,active: -0.936
same,log2 fold change,[3],inactive: 0.114
same,log2 fold change,[6],inactive: 0.122
same,log2 fold change,[4],inactive: 0.233
same,log2 fold change,[5],inactive: 0.296
same,log2 fold change,entospletinib,inactive: -0.032
LSM5 (UniProt Q9Y4Y9),log2 fold change,dasatinib,inactive: 0.057
same,log2 fold change,[1],inactive: -0.035
same,log2 fold change,quisinostat,inactive: -0.01
same,log2 fold change,[3],inactive: 0.016
same,log2 fold change,[6],inactive: 0.112
same,log2 fold change,[2],inactive: 0.225
same,log2 fold change,[4],inactive: -0.091
same,log2 fold change,vorinostat,inactive: 0.25
same,log2 fold change,silmitasertib,inactive: -0.052
same,log2 fold change,[5],inactive: -0.05
same,log2 fold change,entospletinib,inactive: 0.031
LIMD2 (UniProt Q9BT23),log2 fold change,quisinostat,inactive: -0.072
same,log2 fold change,[3],inactive: 0.017
same,log2 fold change,[5],inactive: 0.005
LRRC7 (UniProt Q96NW7),log2 fold change,dasatinib,inactive: 0.059
same,log2 fold change,[1],inactive: -0.043
same,log2 fold change,quisinostat,inactive: 0.128
same,log2 fold change,[3],inactive: -0.009
same,log2 fold change,[6],inactive: 0.069
same,log2 fold change,[4],inactive: -0.097
same,log2 fold change,[5],inactive: -0.012
same,log2 fold change,entospletinib,inactive: -0.108
LRRC45 (UniProt Q96CN5),log2 fold change,dasatinib,inactive: -0.197
same,log2 fold change,[1],inactive: -0.218
LEPROT (UniProt O15243),log2 fold change,quisinostat,inactive: -0.089
same,log2 fold change,[3],inactive: 0.092
same,log2 fold change,[6],inactive: -0.147
same,log2 fold change,[2],inactive: 0.024
same,log2 fold change,vorinostat,active: -0.641
same,log2 fold change,silmitasertib,inactive: 0.167
same,log2 fold change,[5],inactive: -0.007
same,log2 fold change,entospletinib,inactive: 0.115

# No new results follow: an excerpt of the list.
target,measurement,setting,value
LMO4 (UniProt P61968),log2 fold change,silmitasertib,inactive: -0.123
same,log2 fold change,[5],inactive: 0.062
LBHD1 (UniProt Q9BQE6),log2 fold change,quisinostat,inactive: 0.202
same,log2 fold change,[3],inactive: 0.086
same,log2 fold change,[5],inactive: 0.139
LCOR isoform 3 (UniProt Q96JN0),log2 fold change,[6],inactive: -0.263
LRP10 (UniProt Q7Z4F1),log2 fold change,dasatinib,inactive: 0.015
